Source: PMC4154131, “Molecular pathogenesis of Spondylocheirodysplastic Ehlers-Danlos syndrome caused by mutant ZIP13 proteins” (EMBO Molecular Medicine, 2014)
Results are given in words; binding and its absence hold for the method and conditions named. In cells and extracts the contact can be indirect. Some entries that bind do so weakly or less than the wild type. Tags and fused reporters may be left off the sequences shown.

Columns and labels:
[1] = molecular target: T1, C-terminally V5 epitope-tagged wild-type ZIP13 (human) (UniProt Q96H72); experiment: co-IP; lysates of 293T cells transfected with FLAG- or V5-tagged ZIP13, 1% NP-40 lysis buffer; immunoprecipitation with anti-FLAG or anti-V5 antibody and protein G; endogenous VCP detected by Western blot with anti-VCP
T1 sequence: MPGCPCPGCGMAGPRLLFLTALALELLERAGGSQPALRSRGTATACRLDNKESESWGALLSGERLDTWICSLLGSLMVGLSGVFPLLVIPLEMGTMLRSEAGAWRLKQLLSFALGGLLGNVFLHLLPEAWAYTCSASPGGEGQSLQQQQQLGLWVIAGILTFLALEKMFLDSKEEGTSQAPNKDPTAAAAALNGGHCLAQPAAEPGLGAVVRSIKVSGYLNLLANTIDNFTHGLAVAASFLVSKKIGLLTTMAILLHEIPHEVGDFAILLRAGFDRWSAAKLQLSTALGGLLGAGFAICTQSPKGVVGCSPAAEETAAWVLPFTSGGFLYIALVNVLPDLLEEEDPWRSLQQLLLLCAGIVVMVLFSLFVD

[2] = molecular target: T2, N-terminally 3xFLAG-tagged wild-type ZIP13 (human) (UniProt Q96H72); experiment: as above
T2 sequence: T1 sequence

binding [1]: binds | binding [2]: binds
Substance: valosin-containing protein (VCP) (from UniProt P55072 1-806)
